Test results: the supplement of paper PMC10849652
The list shows a part of the results.

Protein sequences, listed by entry. Tags and fused reporters are not part of them. Lines headed by an entry give the natural chain unless they say otherwise; changes in a name come on top.
UniProt Q15398: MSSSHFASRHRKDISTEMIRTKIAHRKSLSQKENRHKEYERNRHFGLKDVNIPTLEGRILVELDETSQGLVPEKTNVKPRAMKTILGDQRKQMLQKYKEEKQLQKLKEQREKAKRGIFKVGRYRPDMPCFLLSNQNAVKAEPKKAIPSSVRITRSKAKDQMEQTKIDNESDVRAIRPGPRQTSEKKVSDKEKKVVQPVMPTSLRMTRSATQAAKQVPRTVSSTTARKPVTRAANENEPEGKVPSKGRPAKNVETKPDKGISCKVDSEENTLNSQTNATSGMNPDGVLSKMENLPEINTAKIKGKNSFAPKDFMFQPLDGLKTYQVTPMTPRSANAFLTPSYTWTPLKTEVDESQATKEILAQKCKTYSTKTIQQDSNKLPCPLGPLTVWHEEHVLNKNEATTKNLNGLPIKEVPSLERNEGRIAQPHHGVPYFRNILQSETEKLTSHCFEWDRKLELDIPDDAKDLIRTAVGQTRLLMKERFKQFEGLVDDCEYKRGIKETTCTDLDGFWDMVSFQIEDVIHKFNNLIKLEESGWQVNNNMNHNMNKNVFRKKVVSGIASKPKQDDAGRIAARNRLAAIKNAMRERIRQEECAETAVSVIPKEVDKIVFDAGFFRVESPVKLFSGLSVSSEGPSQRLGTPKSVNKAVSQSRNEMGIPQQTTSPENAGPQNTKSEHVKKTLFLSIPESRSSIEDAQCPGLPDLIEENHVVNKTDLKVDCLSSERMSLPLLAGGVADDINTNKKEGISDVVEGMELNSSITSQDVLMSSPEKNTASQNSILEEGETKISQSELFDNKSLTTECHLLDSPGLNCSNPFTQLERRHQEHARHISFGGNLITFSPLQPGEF
UniProt P11532, whole entry, looked up: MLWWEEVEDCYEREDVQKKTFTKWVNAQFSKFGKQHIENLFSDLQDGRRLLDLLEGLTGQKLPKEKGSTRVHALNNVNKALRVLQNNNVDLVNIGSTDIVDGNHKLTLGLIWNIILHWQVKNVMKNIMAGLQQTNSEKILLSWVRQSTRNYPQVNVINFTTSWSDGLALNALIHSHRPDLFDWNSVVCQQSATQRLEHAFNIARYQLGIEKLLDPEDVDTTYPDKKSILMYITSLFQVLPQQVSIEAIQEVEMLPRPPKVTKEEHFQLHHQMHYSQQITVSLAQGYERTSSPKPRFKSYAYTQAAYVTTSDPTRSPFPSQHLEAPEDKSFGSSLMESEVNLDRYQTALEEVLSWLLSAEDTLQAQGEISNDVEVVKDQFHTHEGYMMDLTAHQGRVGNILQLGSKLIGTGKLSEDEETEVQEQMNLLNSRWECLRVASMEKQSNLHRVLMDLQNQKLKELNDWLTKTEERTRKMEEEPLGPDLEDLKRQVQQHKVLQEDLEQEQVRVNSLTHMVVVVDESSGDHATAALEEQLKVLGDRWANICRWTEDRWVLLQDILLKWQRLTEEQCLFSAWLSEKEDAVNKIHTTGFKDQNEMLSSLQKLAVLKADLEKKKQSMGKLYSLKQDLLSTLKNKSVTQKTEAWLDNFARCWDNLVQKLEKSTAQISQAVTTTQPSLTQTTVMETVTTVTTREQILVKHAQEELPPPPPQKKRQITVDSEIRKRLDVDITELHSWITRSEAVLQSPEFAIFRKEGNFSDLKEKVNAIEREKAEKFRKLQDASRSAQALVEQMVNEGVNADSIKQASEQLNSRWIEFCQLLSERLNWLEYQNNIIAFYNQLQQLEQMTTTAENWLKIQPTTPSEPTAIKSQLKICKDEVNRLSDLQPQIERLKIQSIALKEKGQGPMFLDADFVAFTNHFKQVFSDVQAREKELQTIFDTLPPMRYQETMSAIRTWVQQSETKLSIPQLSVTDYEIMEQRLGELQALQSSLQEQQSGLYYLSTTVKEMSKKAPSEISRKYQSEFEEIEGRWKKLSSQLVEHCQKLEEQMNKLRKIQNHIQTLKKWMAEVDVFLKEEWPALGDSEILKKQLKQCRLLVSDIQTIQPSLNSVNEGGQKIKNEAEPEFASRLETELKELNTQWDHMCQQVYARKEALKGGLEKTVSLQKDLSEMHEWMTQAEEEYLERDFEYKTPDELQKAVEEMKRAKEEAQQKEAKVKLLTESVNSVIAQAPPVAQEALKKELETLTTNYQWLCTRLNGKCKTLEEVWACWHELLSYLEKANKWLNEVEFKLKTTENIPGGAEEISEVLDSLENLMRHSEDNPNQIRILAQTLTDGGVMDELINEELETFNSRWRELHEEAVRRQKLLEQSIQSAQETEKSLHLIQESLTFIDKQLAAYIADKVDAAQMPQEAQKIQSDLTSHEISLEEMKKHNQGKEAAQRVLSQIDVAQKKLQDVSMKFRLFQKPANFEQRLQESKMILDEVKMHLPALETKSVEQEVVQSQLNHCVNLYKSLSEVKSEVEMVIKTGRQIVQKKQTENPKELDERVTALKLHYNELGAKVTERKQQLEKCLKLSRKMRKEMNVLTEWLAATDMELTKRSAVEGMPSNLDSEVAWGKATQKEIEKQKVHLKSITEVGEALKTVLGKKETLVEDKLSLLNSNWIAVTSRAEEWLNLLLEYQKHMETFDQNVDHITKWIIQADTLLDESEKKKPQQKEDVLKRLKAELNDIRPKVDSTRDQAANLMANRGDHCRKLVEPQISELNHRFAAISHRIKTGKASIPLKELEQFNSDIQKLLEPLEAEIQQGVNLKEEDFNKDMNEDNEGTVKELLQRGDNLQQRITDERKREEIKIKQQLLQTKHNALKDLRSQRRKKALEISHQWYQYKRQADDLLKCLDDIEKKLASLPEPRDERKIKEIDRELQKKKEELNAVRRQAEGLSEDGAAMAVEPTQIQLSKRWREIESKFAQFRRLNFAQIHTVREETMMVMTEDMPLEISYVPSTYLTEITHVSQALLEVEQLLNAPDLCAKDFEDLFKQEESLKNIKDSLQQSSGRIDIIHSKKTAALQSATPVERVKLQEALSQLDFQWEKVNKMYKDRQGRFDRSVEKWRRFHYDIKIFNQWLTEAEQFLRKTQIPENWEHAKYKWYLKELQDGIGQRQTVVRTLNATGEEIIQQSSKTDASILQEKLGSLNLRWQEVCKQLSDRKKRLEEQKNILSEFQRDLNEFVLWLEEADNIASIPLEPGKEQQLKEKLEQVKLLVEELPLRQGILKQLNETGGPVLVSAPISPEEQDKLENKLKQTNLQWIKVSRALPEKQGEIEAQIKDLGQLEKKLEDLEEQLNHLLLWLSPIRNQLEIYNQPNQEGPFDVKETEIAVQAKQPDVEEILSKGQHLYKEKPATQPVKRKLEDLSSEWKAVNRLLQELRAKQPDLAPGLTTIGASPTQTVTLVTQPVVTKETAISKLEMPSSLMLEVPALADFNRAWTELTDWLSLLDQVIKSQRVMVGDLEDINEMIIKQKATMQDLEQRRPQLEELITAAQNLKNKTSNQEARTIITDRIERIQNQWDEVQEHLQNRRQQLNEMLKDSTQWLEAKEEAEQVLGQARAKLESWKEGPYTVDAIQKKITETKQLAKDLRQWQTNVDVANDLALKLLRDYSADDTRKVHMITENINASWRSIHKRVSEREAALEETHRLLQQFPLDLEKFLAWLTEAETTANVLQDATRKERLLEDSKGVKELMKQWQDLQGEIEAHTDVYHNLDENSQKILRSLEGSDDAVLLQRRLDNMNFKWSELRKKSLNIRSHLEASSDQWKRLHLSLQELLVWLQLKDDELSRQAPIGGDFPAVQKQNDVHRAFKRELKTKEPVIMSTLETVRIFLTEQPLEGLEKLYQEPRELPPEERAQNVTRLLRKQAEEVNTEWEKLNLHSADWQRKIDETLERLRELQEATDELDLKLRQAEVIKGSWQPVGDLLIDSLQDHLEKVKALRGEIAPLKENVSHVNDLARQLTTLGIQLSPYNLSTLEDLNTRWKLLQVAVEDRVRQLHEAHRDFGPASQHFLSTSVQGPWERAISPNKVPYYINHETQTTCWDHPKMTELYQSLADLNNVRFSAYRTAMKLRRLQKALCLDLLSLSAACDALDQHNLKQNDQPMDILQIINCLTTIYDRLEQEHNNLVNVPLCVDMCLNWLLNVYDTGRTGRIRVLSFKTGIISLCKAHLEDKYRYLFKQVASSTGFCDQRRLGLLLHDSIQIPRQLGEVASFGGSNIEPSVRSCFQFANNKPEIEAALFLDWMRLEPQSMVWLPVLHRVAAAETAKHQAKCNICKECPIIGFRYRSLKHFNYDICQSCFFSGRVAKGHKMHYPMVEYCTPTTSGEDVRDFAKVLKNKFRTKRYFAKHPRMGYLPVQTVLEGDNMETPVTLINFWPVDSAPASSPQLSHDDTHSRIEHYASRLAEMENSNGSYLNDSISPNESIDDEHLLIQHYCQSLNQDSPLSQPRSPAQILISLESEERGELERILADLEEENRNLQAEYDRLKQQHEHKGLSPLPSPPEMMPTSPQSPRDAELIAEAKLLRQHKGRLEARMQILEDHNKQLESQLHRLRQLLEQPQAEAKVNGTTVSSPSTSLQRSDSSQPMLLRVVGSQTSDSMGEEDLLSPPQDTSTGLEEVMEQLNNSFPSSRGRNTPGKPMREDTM
UniProt Q92796: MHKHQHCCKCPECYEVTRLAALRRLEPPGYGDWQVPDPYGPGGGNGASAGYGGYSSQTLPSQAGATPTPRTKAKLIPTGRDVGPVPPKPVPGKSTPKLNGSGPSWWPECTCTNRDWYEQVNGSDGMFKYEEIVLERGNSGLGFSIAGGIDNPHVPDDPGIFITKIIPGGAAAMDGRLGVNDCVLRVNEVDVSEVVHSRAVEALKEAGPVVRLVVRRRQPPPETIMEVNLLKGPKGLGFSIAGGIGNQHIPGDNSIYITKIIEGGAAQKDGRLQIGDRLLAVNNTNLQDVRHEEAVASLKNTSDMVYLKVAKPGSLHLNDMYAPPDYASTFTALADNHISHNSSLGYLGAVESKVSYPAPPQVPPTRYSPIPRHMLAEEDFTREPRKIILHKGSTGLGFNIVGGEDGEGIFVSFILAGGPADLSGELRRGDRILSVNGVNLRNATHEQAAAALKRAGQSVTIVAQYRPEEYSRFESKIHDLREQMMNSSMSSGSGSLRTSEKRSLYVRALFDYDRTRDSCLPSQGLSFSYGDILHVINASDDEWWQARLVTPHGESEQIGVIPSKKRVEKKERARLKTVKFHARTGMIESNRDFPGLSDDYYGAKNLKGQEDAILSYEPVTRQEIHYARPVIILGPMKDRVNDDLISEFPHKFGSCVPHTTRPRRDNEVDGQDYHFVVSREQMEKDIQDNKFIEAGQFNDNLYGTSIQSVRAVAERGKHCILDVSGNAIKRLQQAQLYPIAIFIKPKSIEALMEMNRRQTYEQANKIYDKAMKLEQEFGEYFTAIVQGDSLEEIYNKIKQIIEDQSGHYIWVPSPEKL
UniProt O75911: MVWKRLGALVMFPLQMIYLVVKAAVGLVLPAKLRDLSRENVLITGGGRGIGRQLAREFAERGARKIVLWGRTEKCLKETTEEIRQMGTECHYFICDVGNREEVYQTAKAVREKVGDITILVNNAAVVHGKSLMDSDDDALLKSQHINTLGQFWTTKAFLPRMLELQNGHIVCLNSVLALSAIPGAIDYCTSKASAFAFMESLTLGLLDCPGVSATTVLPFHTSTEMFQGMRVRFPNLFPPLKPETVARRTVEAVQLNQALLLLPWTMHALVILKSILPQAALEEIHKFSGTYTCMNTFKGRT
UniProt Q96DA6: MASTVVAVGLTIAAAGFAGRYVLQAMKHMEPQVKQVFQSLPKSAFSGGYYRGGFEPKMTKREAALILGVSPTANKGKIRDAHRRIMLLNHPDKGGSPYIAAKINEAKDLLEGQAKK
UniProt O00429, whole entry, looked up: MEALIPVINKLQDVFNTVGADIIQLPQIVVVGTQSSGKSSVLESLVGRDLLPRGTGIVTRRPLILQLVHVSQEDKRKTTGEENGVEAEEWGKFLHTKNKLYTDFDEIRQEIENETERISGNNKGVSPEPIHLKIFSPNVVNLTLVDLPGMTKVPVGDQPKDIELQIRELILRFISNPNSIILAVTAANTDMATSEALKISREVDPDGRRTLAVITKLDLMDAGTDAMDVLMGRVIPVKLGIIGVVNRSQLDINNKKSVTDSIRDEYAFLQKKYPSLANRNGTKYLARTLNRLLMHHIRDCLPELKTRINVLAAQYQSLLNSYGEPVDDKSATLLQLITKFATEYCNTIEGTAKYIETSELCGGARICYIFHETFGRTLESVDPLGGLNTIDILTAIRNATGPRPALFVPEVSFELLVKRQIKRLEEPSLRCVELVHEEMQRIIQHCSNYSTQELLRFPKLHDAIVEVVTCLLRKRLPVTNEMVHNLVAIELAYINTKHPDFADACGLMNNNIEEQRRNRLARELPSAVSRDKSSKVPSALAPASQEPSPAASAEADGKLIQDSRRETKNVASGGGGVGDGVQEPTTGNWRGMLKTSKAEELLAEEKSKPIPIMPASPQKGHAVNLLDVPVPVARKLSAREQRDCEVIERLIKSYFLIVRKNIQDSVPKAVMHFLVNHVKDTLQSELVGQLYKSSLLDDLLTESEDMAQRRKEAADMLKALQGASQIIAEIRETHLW

What follows are targets tested with Cc1sc2c(c1C)C(c1ccc(Cl)cc1)=N[C@@H](CC(=O)OC(C)(C)C)c1nnc(C)n1-2 (assay: log2 fold change, soluble protein after heating vs DMSO (PISA); higher = thermal stabilisation; K562 lysate, 10 uM; active = over 0.2 and 3.5 SD of the protein, either way, in both replicates (recomputed)).
Method in brief: (§1)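 Following dounce homogenisation of K562 pellets in PBS pH 7.4 with 1 mM MgCl2, crude extract at 1 mg/mL protein was incubated for 30 min with 10 μM compound. Aliquots were then heated for 3 min over 48°C-58°C and pooled, NP-40 was added to 0.5% at 4°C, and soluble protein was recovered as the supernatant at 21,000xg for 90 min. Channel-sum-equalised TMTpro 16plex LC-MS/MS quantified this protein. Each value, from duplicates, is a log-two fold change in thermal stability relative to solvent controls.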
For DHRS7 (UniProt Q9Y394), the log2 fold change was inactive: 0.008.
DHDDS isoform 2 (UniProt Q86SQ9) was tested, and the log2 fold change was inactive: 0.027.
DNAJC16 (UniProt Q9Y2G8) was tested, and the log2 fold change was inactive: -0.252.
DHRS13 (UniProt Q6UX07) was tested, and the log2 fold change was inactive: -0.099.
For DHX29 (UniProt Q7Z478), the log2 fold change was inactive: -0.003.
For DNM1 (UniProt Q05193), the log2 fold change was inactive: 0.01.
DHX40 (UniProt Q8IX18) was tested, and the log2 fold change was inactive: -0.02.
DLGAP5 isoform 3 (UniProt Q15398) was tested, and the log2 fold change was inactive: -0.036.
With DOCK8 (UniProt Q8NF50) the log2 fold change was inactive: 0.005.
With DLGAP5 (UniProt Q15398) the log2 fold change was inactive: -0.036.
With DMXL1 (UniProt Q9Y485) the log2 fold change was inactive: -0.005.
With DNAJC17 (UniProt Q9NVM6) the log2 fold change was inactive: -0.048.
In the case of DNM2 (UniProt P50570), the log2 fold change was inactive: 0.05.
In the case of DNAJC13 (UniProt O75165), the log2 fold change was inactive: 0.027.
For DOHH (UniProt Q9BU89), the log2 fold change was inactive: -0.068.
DLG1 isoform 2 (UniProt Q12959) was tested, and the log2 fold change was inactive: 0.006.
With DMD isoform 14 (UniProt P11532) the log2 fold change was inactive: -0.007.
With DHRS7B (UniProt Q6IAN0) the log2 fold change was inactive: -0.002.
DLG3 isoform 2 (UniProt Q92796) was tested, and the log2 fold change was inactive: 0.019.
In the case of DONSON (UniProt Q9NYP3), the log2 fold change was inactive: 0.013.
DHRS3 (UniProt O75911) was tested, and the log2 fold change was inactive: 0.018.
For DHX57 (UniProt Q6P158), the log2 fold change was inactive: 0.021.
For DNAJC19 (UniProt Q96DA6), the log2 fold change was inactive: -0.035.
In the case of DNAAF5 (UniProt Q86Y56), the log2 fold change was inactive: 0.016.
In the case of DMD (UniProt P11532), the log2 fold change was inactive: -0.007.
With DNM1L isoform 2 (UniProt O00429) the log2 fold change was inactive: -0.107.
For DOK3 (UniProt Q7L591), the log2 fold change was inactive: 0.074.
DNAJB12 (UniProt Q9NXW2) was tested, and the log2 fold change was inactive: -0.026.
For DOP1A (UniProt Q5JWR5), the log2 fold change was inactive: -0.237.

The targets below were run with c1ccc([C@@H]2C[C@H]2NC2CCNCC2)cc1 in the same assay as above.
Method in brief: as §1
In the case of DHRS7 (UniProt Q9Y394), the log2 fold change was inactive: -0.001.
For DMAC2 isoform 4 (UniProt Q9NW81), the log2 fold change was inactive: 0.087.
DHDDS isoform 2 (UniProt Q86SQ9) was tested, and the log2 fold change was inactive: 0.
DNAJC16 (UniProt Q9Y2G8) was tested, and the log2 fold change was inactive: 0.005.
In the case of DHX29 (UniProt Q7Z478), the log2 fold change was inactive: 0.007.
For DNM1 (UniProt Q05193), the log2 fold change was inactive: 0.039.
For DHX40 (UniProt Q8IX18), the log2 fold change was inactive: 0.016.
For DLGAP5 isoform 3 (UniProt Q15398), the log2 fold change was inactive: 0.021.
DOCK8 (UniProt Q8NF50) was tested, and the log2 fold change was inactive: 0.05.
With DLGAP5 (UniProt Q15398) the log2 fold change was inactive: -0.015.
For DMXL1 (UniProt Q9Y485), the log2 fold change was inactive: 0.016.
In the case of DNAJC17 (UniProt Q9NVM6), the log2 fold change was inactive: 0.011.
With DNMT1 (UniProt P26358) the log2 fold change was inactive: 0.091.
In the case of DNM2 (UniProt P50570), the log2 fold change was inactive: 0.057.
In the case of DIAPH1 (UniProt H9KV28), the log2 fold change was inactive: -0.117.
In the case of DNAJC13 (UniProt O75165), the log2 fold change was inactive: -0.006.
In the case of DOHH (UniProt Q9BU89), the log2 fold change was inactive: 0.011.
For DLG1 isoform 2 (UniProt Q12959), the log2 fold change was inactive: 0.002.
In the case of DMD isoform 14 (UniProt P11532), the log2 fold change was inactive: 0.231.
For DHRS7B (UniProt Q6IAN0), the log2 fold change was inactive: -0.036.
DLG3 isoform 2 (UniProt Q92796) was tested, and the log2 fold change was inactive: 0.048.
In the case of DONSON (UniProt Q9NYP3), the log2 fold change was inactive: -0.243.
With DHRS3 (UniProt O75911) the log2 fold change was inactive: -0.004.
For DHX57 (UniProt Q6P158), the log2 fold change was inactive: -0.008.
With DNAJC19 (UniProt Q96DA6) the log2 fold change was inactive: 0.016.
For DNAAF5 (UniProt Q86Y56), the log2 fold change was inactive: 0.064.
DMD (UniProt P11532) was tested, and the log2 fold change was inactive: -0.016.
For DNM1L isoform 2 (UniProt O00429), the log2 fold change was inactive: 0.059.
DOK3 (UniProt Q7L591) was tested, and the log2 fold change was inactive: -0.04.
In the case of DNAJB12 (UniProt Q9NXW2), the log2 fold change was inactive: 0.058.
For DNPEP (UniProt C9JBE1), the log2 fold change was inactive: -0.16.
